Where a chain is given by its changes, count along the chain named. Tags and fusion partners may be left off the protein sequences shown.
Tests used:
[1] = molecular target: T1, TSK V93Q,D141A,E143A,Y409S,A485L,E664K (Thermococcus gorgonarius) (UniProt P56689); assay: activity assay; details: outperforms D4S; less active than D4SK; protein in a lysate after overexpression; label: 5' FITC on primer
T1 sequence: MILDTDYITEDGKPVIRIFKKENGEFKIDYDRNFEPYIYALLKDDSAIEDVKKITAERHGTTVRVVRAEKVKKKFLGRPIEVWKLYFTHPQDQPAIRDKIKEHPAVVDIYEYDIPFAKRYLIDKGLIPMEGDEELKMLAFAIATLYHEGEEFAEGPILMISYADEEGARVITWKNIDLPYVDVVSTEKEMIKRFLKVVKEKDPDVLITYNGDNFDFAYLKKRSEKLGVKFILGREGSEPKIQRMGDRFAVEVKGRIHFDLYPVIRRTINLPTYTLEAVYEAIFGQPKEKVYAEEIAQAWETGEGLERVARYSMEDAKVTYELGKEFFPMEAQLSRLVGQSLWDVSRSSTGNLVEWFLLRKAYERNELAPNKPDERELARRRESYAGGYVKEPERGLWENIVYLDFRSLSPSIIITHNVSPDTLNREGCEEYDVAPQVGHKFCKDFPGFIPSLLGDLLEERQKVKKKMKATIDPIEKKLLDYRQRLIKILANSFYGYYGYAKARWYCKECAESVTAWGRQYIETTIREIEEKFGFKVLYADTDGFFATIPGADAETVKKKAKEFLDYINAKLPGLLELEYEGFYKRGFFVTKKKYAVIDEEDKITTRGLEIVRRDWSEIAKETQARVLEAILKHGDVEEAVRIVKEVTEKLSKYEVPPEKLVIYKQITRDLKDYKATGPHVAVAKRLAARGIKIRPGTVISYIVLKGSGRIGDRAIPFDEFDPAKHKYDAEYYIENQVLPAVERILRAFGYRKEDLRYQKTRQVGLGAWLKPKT

[2] = molecular target: T2, PolD4K (D4YK) V93Q,D141A,E143A,L403P,A485L,P657T,E658Q,K659H,Y663H,E664K,D669A,K671N,T676I (Thermococcus gorgonarius) (UniProt P56689); assay: activity assay; details: ANA synthesis; full-length product at 18.8 nM polymerase; 1x ThermoPol; purified recombinant protein; label: 5' FITC on primer
T2 sequence: T1 sequence with L403P, S409Y, P657T, E658Q, K659H, Y663H, D669A, K671N, T676I

CCCCTTATTAGCGTTTGCCA / CTCACGATGCTGGACCAGATAAGCACTTAGCCACGTAGTGCTGTTCGGTAATCGATCTGGCAAACGCTAATAAGGGG [fd primer / TempN template]
activity on this sequence [1]: active | activity on this sequence [2]: active
